T/C and survivor count data for 25 molecules are collected here from PubChem BioAssay AID328 (DTP/NCI, 2004).

In the assay the test system is BDF1 mice, P388 leukemia ip, median survival T/C. As to the kind of experiment: NCI In Vivo Anticancer Drug Screen. Data for tumor model P388 Leukemia (intraperitoneal) in B6D2F1 (BDF1) mice. Conditions: T/C endpoint: median survival time, higher T/C = longer survival. The method in brief:
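T/C = treated-group survival ÷ vehicle-control survival; tumour transplanted into mice before dosing.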

Setting [1] is: dose: 12.5 mg/kg/injection, schedule: Q01DX009 (ip), vehicle: saline.
[2] abbreviates: dose: 25.0 mg/kg/injection, schedule: Q01DX009 (ip), vehicle: saline.
Setting [3] is: dose: 200.0 mg/kg/injection, schedule: Q01DX009 (ip), vehicle: saline with Tween-80.
[4] abbreviates: dose: 400.0 mg/kg/injection, schedule: Q01DX009 (ip), vehicle: saline with Tween-80.
[5] abbreviates: dose: 50.0 mg/kg/injection, schedule: Q01DX009 (ip), vehicle: Klucel (hydroxypropylcellulose) (HPC).
The mark [6] stands for this setting: dose: 100.0 mg/kg/injection, schedule: Q01DX009 (ip), vehicle: Klucel (hydroxypropylcellulose) (HPC).
The mark [7] stands for this setting: dose: 200.0 mg/kg/injection, schedule: Q04DX003 (ip), vehicle: Klucel (hydroxypropylcellulose) (HPC).
[8] abbreviates: dose: 400.0 mg/kg/injection, schedule: Q04DX003 (ip), vehicle: Klucel (hydroxypropylcellulose) (HPC).
Where [9] appears, read: dose: 50.0 mg/kg/injection, schedule: Q01DX009 (ip), vehicle: saline with Tween-80.
Setting [10] is: dose: 100.0 mg/kg/injection, schedule: Q01DX009 (ip), vehicle: saline with Tween-80.
Where [11] appears, read: dose: 400.0 mg/kg/injection, schedule: Q04DX003 (ip), vehicle: saline with Tween-80.

The list is a part of this screen's results and no random one: it is rich in T/C values a quarter to a half above the control, in often repeated tests (any T/C) and in doses without a T/C. Further doses and runs are listed elsewhere. T/C is the treated group as % of the vehicle group. Some doses have a count of surviving animals in place of a T/C: the source holds a T/C of zero for them, seemingly a mark for toxic or unscored doses. Some survivor counts are full or nearly so, which does not show that the dose was tolerated: survival well below the control is almost never listed, so the zero probably covers shortened survival too. Survivors were counted at the toxicity check, usually on the fifth day, unless a day is given; later deaths do not show. Schedules are NCI's codes, taken here to give the interval after Q, in days (D) or hours (H), and the number of doses after X. For survival time, this PubChem deposit counts one and a half times the control or more as active, and values a quarter to a half above the control carry no call in these data; other NCI protocols may use other cut-offs. Some T/C values are followed by the survivors on the day toxicity was checked, most often the fifth; where none is given, no animal had died by that day. Some entries were tested several times; the results are listed from low to high.

Turning to `CN(C)C(c1ccccc1)C(CBr)C(=O)c1ccc(Br)cc1` (centres undefined), the T/C under setting [1] is 125 % of control and the T/C under setting [2] was 125 % of control. Also, the survivor count by setting is: (dose: 55.0 mg/kg/injection, schedule: Q01DX009 (ip), vehicle: saline) 0 of 6; (dose: 85.0 mg/kg/injection, schedule: Q01DX009 (ip), vehicle: saline) 1 of 6; (dose: 110.0 mg/kg/injection, schedule: Q04DX003 (ip), vehicle: saline) 0 of 6; (dose: 125.0 mg/kg/injection, schedule: Q01DX009 (ip), vehicle: saline) 0 of 6.

Regarding `N#CCCCn1nnc(-c2ccccc2)n1`, the survivor count under setting [3] is on record as 2 of 6.

Consider `CCCCCCCC(=O)NC1CC(O[C@H]2C[C@](O)(C(=O)CO)Cc3c(O)c4c(c(O)c32)C(=O)c2c(OC)cccc2C4=O)OC(C)C1O` (some centres undefined), for which the T/C is 127 % of control (dose: 1.56 mg/kg/injection, schedule: Q01DX009 (ip), vehicle: water); 136 % of control (dose: 3.13 mg/kg/injection, schedule: Q01DX009 (ip), vehicle: water); 142 % of control (dose: 150.0 mg/kg/injection, schedule: Q04DX003 (ip), vehicle: water); 135 [5 of 6 alive] and 136 % of control (dose: 300.0 mg/kg/injection, schedule: Q04DX003 (ip), vehicle: water); 131 % of control (dose: 400.0 mg/kg/injection, schedule: Q04DX003 (ip), vehicle: water).

Consider `C[CH2][Pb]([CH2]C)([CH2]C)[O]C(=O)COC`, for which the T/C is, setting by setting: (dose: 1.56 mg/kg/injection, schedule: Q01DX009 (ip), vehicle: Klucel (hydroxypropylcellulose) (HPC)) 133 % of control; (dose: 3.13 mg/kg/injection, schedule: Q01DX009 (ip), vehicle: Klucel (hydroxypropylcellulose) (HPC)) 126 % of control. The survivor count (dose: 6.25 mg/kg/injection, schedule: Q01DX009 (ip), vehicle: Klucel (hydroxypropylcellulose) (HPC)) is given as 6 of 6.

As to `CC(=O)OC1CC2CC1C1C3C=CC(C3)C21` (centres undefined), the survivor count reads like this: under setting [3], 5 of 6; under setting [4], 2 of 6.

Turning to `C/C(=N/N(C)C)c1ccccn1`, under setting [4], the survivor count is 2 of 6.

As to `CNC(=N)c1ccc(NC(=N)c2ccc(NC(=O)Nc3ccc(NC(=O)Nc4ccc(C(=N)Nc5ccc(C(=N)NC)cc5)cc4)cc3)cc2)cc1`, the T/C is, setting by setting: (dose: 2.6 mg/kg/injection, schedule: Q04DX003 (ip), vehicle: Klucel (hydroxypropylcellulose) (HPC)) 137 % of control; (dose: 4.5 mg/kg/injection, schedule: Q01DX009 (ip), vehicle: Klucel (hydroxypropylcellulose) (HPC)) 142 % of control. Further, the survivor count under setting [5] is 6 of 6, the survivor count under setting [6] is on record as 6 of 6, the survivor count under setting [7] was 4 of 6 and the survivor count under setting [8] is 2 of 6.

As for `COc1ccc(O)c(CC(C)C)c1`, the T/C runs as follows: (dose: 100.0 mg/kg/injection, schedule: Q01DX009 (ip), vehicle: alcohol) 131 % of control; (dose: 200.0 mg/kg/injection, schedule: Q01DX009 (ip), vehicle: alcohol) 127 % of control. For the same molecule, the survivor count (dose: 400.0 mg/kg/injection, schedule: Q01DX009 (ip), vehicle: alcohol) was 4 of 6.

Consider `O=[N+]([O-])c1ccc(C=C2C(Cl)=C(Cl)C(Cl)=C2Cl)cc1`, for which the survivor count under setting [9] is 3 of 6, the survivor count under setting [10] is on record as 0 of 6 and the survivor count under setting [3] is on record as 0 of 6.

Consider `CCCCOB=O`, for which the survivor count under setting [11] is on record as 3 of 6.

In the case of `COc1ccc(CC2C(=O)NC(C)C(=O)N(C)C3C(=O)N(C)C(Cc4ccc(O)c(c4)Oc4ccc(cc4)C3O)C(=O)NC(C)C(=O)NC(C)C(=O)N2C)cc1` (centres undefined) (tested in a mixture with another compound), the survivor count (dose: 4.0 mg/kg/injection, schedule: Q01DX009 (ip), vehicle: alcohol) is recorded as 6 of 6 and the survivor count (dose: 4.0 mg/kg/injection, schedule: Q01DX009 (ip), vehicle: carboxymethylcellulose (CMC)) is on record as 3 of 6.

Take `COC(=O)CCC(C)C1CCC2C3CCC4CC(SC(=N)N)CCC4(C)C3CCC12C` (centres undefined): the T/C (dose: 12.5 mg/kg/injection, schedule: Q01DX009 (ip), vehicle: suspension in saline) is 125 % of control. Besides, the survivor count under setting [3] is on record as 4 of 6.

Turning to `CN1C(=O)NC(C)(c2cccs2)C1=O` (centres undefined), the survivor count under setting [9] is given as 3 of 6, the survivor count under setting [10] is on record as 6 of 6, the survivor count under setting [3] is reported as 5 of 6 and the survivor count under setting [4] was 0 of 6.

For the molecule `NC(Cc1ccc(O)c(I)c1)C(=O)O` (centres undefined), the survivor count (dose: 400.0 mg/kg/injection, schedule: Q01DX009 (ip), vehicle: saline) is 3 of 6.

Consider `COC(=O)c1cncc(C(=O)OC)c1`, for which, under setting [11], the T/C is 136 % of control.

Turning to `CCCC(NC(=O)OCc1ccccc1)C(=O)O` (centres undefined), under setting [4], the survivor count is given as 3 of 6.

For `CC(=O)/C=N/Nc1ccccc1`, for the setting “dose: 100.0 mg/kg/injection, schedule: Q04DX003 (ip), vehicle: Klucel (hydroxypropylcellulose) (HPC)”, the T/C was 131 % of control.

As to `CSc1ncncc1N`, the survivor count (dose: 200.0 mg/kg/injection, schedule: Q01DX009 (ip), vehicle: saline) is 0 of 6.

Take `CCOC(=O)c1c[nH]c2cc(Cl)ccc2c1=O`: the survivor count is listed as 6 of 6 (dose: 150.0 mg/kg/injection, schedule: Q04DX003 (ip), vehicle: Klucel (hydroxypropylcellulose) (HPC)) and 6 of 6 (dose: 300.0 mg/kg/injection, schedule: Q04DX003 (ip), vehicle: Klucel (hydroxypropylcellulose) (HPC)).

In the case of `O=C(CCl)c1ccc(O)c(O)c1`, the survivor count by setting is: (dose: 18.0 mg/kg/injection, schedule: Q04DX003 (ip), vehicle: saline with Tween-80) 5 of 6; under setting [5], 0 of 6; under setting [6], 1 of 6; (dose: 150.0 mg/kg/injection, schedule: Q01DX009 (ip), vehicle: Klucel (hydroxypropylcellulose) (HPC)) 0 of 6. The T/C by setting is: (dose: 25.0 mg/kg/injection, schedule: Q01DX009 (ip), vehicle: Klucel (hydroxypropylcellulose) (HPC)) 126 and 135 % of control [5 of 6 alive]; under setting [5], 138 % of control; (dose: 60.0 mg/kg/injection, schedule: Q01DX001 (ip), vehicle: saline) 136 % of control [5 of 6 alive]; (dose: 90.0 mg/kg/injection, schedule: Q01DX001 (ip), vehicle: saline) 131 % of control.

On to `COC(=O)c1cc(=O)nc(NN=C(C)C)s1`, for which the survivor count (dose: 200.0 mg/kg/injection, schedule: Q01DX005 (ip), vehicle: saline with Tween-80) is 0 of 5.

Take `C/C=C1/C[C@@H](C)[C@@](C)(O)C(=O)OCC2=CCN3CC[C@@H](OC1=O)[C@@H]23`: under “dose: 120.0 mg/kg/injection, schedule: Q01DX010 (ip), vehicle: steroid suspending solution”, the survivor count is 6 of 6.

`O=C(O)/C=C/c1c[nH]c(=O)[nH]c1=O`: the survivor count reads like this: under setting [7], 6 of 6; under setting [8], 0 of 6.

As for `C#CC(N)=O`, for the setting “dose: 50.0 mg/kg/injection, schedule: Q04DX003 (ip), vehicle: Klucel (hydroxypropylcellulose) (HPC)”, the survivor count was 0 of 6.

Regarding `O=C1c2ccccc2C(=O)c2c(O)c(N3CCOCC3)cc(O)c21`, the survivor count (dose: 1.56 mg/kg/injection, schedule: Q01DX009 (ip), vehicle: saline) is on record as 6 of 6; the survivor count (dose: 3.12 mg/kg/injection, schedule: Q01DX009 (ip), vehicle: saline) is 6 of 6; the survivor count (dose: 6.25 mg/kg/injection, schedule: Q01DX009 (ip), vehicle: saline) was 6 of 6; the survivor count under setting [1] is on record as 5 of 6; the survivor count under setting [2] is 6 of 6.
